{
  "source": "paper PMC12670160",
  "about": "“A drug-repurposing screen of FDA- and EMA-approved drugs identifies two NF-κB inhibitors active against eumycetoma” (Journal of Antimicrobial Chemotherapy, 2025)",
  "note": "Counter-ions that a name gives are not always drawn. In all, about 5,300 compounds went through this assay and about 130 (2.5%) showed an effect of 50% or more. The list shows a part of the results.",
  "data": [
    {"system": "M. mycetomatis strain mm55", "conditions": "primary screen, metabolic activity vs growth control; 96 h, 2 µM; inhibitor", "units": {"% viability": "%"}, "values": [
      {"smiles": "Cc1ccc(Cl)c(OCC(O)CNC(C)(C)C)c1", "note": "(stereo not shown) [ONC0003796, bupranolol]", "% viability": 85.75},
      {"smiles": "NC(=O)c1ccc(-c2nc(-c3ccc4c(c3)OCO4)c(-c3ccccn3)[nH]2)cc1", "note": "[ONC0001919, sb431542]", "% viability": 74.1},
      {"smiles": "Cc1ccc(F)cc1C(=O)Nc1ccc(C(=O)N2Cc3cccn3Cc3ccccc32)c(Cl)c1", "note": "[ONC0004587, lixivaptan]", "% viability": 69.55},
      {"smiles": "NC(=O)c1ncn([C@@H]2O[C@H](CO)[C@@H](O)[C@H]2O)c1N", "note": "[ONC0004919, aicar acadesine]", "% viability": 121.2},
      {"smiles": "CC1=C(/C=C/C(C)=C/C=C/C(C)=C/C(=O)Nc2ccc(O)cc2)C(C)(C)CCC1", "note": "[ONC0001810, fenretinide]", "% viability": 98.64},
      {"smiles": "CC[N+](C)(CC)CC(=O)Nc1c(C)cccc1C", "note": "[ONC0001568, nmethyllidocaineiodide]", "% viability": 118.5},
      {"smiles": "C[C@@H]1C(=O)O[C@H]2C[C@@]34[C@H]5C[C@@H](C(C)(C)C)[C@]36[C@@H](OC(=O)[C@@H]6O)O[C@@]4(C(=O)O5)[C@]21O", "note": "[ONC0004818, ginkgolide a]", "% viability": 112},
      {"smiles": "CC1=C(C(=O)OC2CCCCC2)C(c2ccc([N+](=O)[O-])cc2)C2=C(CC(C)(C)CC2=O)N1", "note": "(stereo not shown) [ONC0000155, fli06]", "% viability": 107.9},
      {"smiles": "CCOc1c(N2CCOCC2)cnn(C)c1=O", "note": "[ONC0002171, emorfazone]", "% viability": 73.46},
      {"smiles": "CC(c1cc2ccccc2s1)N(O)C(N)=O", "note": "(stereo not shown) [ONC0004002, zileuton]", "% viability": 61.97},
      {"smiles": "C[C@]12C=CC(=O)C=C1CCC1C2[C@@H](O)C[C@@]2(C)C1CC[C@]2(O)C(=O)COC(=O)CCC(=O)O", "note": "(stereo partly shown) [ONC0004028, prednisolone hemisuccinate]", "% viability": 62.59},
      {"smiles": "C[C@]12CCC(=O)C=C1CCC1C2C(=O)C[C@@]2(C)C1CC[C@]2(O)C(=O)CO", "note": "(stereo partly shown) [ONC0005338, cortisone]", "% viability": 64.83},
      {"smiles": "C/C(=N\\NC(=O)[C@@H]1C(=O)NC[C@H]1c1ccccc1)c1cccc(Br)c1", "note": "[ONC0002559, ac264613]", "% viability": 54.39},
      {"smiles": "O=C(O)c1cc(O)c2c(c1)[C@H]([C@H]1c3cc(C(=O)O)cc(O)c3C(=O)c3c(O[C@@H]4O[C@H](CO)[C@@H](O)[C@H](O)[C@H]4O)cccc31)c1cccc(O[C@@H]3O[C@H](CO)[C@@H](O)[C@H](O)[C@H]3O)c1C2=O", "note": "[ONC0002290, sennoside a]", "% viability": 83.14},
      {"smiles": "CN(C)CCCOc1nn(Cc2ccccc2)c2ccccc12", "note": "[ONC0004021, benzydamine hydrochloride]", "% viability": 64.93},
      {"smiles": "COc1ccc(Nc2nccc(NCCO)n2)cc1", "note": "[ONC0000720, cardiogenolc]", "% viability": 79.31},
      {"smiles": "CCC(C)(C)C(=O)C(=O)N1CCC[C@H]1C(=O)OCCCc1cccnc1", "note": "[ONC0002003, gpi1046]", "% viability": 85.52},
      {"smiles": "O=C1c2c(O)cc(O)cc2O[C@H](c2ccc(O)c(O)c2)[C@H]1O", "note": "[ONC0004969, taxifolin dihydroquercetin]", "% viability": 64.63},
      {"smiles": "CCCC(=O)C1(c2ccccc2)CCN(C(=O)[C@@H](Cc2ccc(OC)cc2)NC(=O)[C@@H](N)Cc2cncn2C)CC1", "note": "[ONC0001677, bms470539]", "% viability": 82.41},
      {"smiles": "CN1CCCC(CN2c3ccccc3Sc3ccccc32)C1", "note": "(stereo not shown) [ONC0002869, mepazine]", "% viability": 113.3},
      {"smiles": "Nc1ccn(C[C@@H](CO)OCP(=O)(O)O)c(=O)n1", "note": "[ONC0004422, cidofovir vistide]", "% viability": 106.5},
      {"smiles": "C1CCC(/N=C(\\NC23CC4CC(CC(C4)C2)C3)N2CCOCC2)CC1", "note": "[ONC0002564, pnu37883]", "% viability": 92.95},
      {"smiles": "FC(F)(F)c1ccc(/C=C/c2nc(COc3ccc(CCCCn4ccnn4)cc3)co2)cc1", "note": "[ONC0000071, mubritinib]", "% viability": 94.3},
      {"smiles": "CC(C)NCCN(C(C)C)S(=O)(=O)c1ccc(Cl)cc1Cl", "note": "[ONC0000831, rn1734]", "% viability": 59.26},
      {"smiles": "CC(=O)OCC(=O)[C@@]1(O)CC[C@H]2[C@@H]3CCC4=CC(=O)CC[C@]4(C)[C@H]3C(=O)C[C@@]21C", "note": "[ONC0000306, cortisone acetate]", "% viability": 62.86},
      {"smiles": "C=C1C(=O)O[C@H]2[C@H]1CC/C(C)=C\\CC[C@@]1(C)O[C@@H]21", "note": "[ONC0004743, parthenolide parthenolide]", "% viability": 94.43},
      {"smiles": "COc1cc(C(=O)N2CCOCC2)cc(OC)c1OC", "note": "[ONC0002381, trimetozine]", "% viability": 59.35},
      {"smiles": "Cc1ccc(S(=O)(=O)NC2c3ccccc3Oc3ccccc32)cc1", "note": "[ONC0003550, ah7614]", "% viability": 103.8},
      {"smiles": "CC(C)(C)c1cc(C(=O)/C=C/c2ccc(C(=O)O)cc2)cc(C(C)(C)C)c1", "note": "[ONC0003055, ch55]", "% viability": 140.3},
      {"smiles": "CC(=O)OCC(=O)[C@@]1(O)CC[C@H]2[C@@H]3CCC4=CC(=O)C=C[C@]4(C)[C@@]3(F)[C@@H](O)C[C@@]21C", "note": "[ONC0002953, isoflupredoneacetate]", "% viability": 81.46},
      {"smiles": "CO[C@]12C[C@@H](COC(=O)c3cncc(Br)c3)CN(C)[C@@H]1Cc1cn(C)c3cccc2c13", "note": "[ONC0000664, nicergoline]", "% viability": 95.08},
      {"smiles": "CCCCC(=O)O[C@]1(C(=O)CO)[C@@H](C)C[C@H]2[C@@H]3CCC4=CC(=O)C=C[C@]4(C)[C@@]3(F)[C@@H](O)C[C@@]21C", "note": "[ONC0003201, betamethasone valerate]", "% viability": 84.65},
      {"smiles": "C[C@@H](CN1CCC(n2c(=O)[nH]c3cc(Cl)ccc32)CC1)NC(=O)c1ccc2ccccc2c1", "note": "[ONC0000807, vu0155069]", "% viability": 96},
      {"smiles": "O=C(O)COc1nn(Cc2ccccc2)c2ccccc12", "note": "[ONC0001924, bendazac]", "% viability": 52.28},
      {"smiles": "S=C=Nc1ccc(N=C=S)cc1", "note": "[ONC0003922, bitoscanate]", "% viability": 63.03},
      {"smiles": "O=C(O)COc1cccc(-c2ocnc2-c2nc(-c3ccccc3)c(-c3ccccc3)o2)c1", "note": "[ONC0001730, bmy45778]", "% viability": 72.58},
      {"smiles": "CCCCCn1cc(C(=O)NC23CC4CC(CC(C4)C2)C3)c(=O)c2cc(-c3ccccc3)ccc21", "note": "[ONC0000099, cor170]", "% viability": 96.49}
    ]}
  ]
}
